# Test results published in PubChem BioAssay AID504444 (National Center for Advancing Translational Sciences (NCATS), 2011).
# Values joined by “and” are separate entries in the source; they are usually repeats but may differ in a detail not shown here. Equal entries are not always repeated. The whole screen tested about 360,000 compounds, of which about 7,500 (2.1%) were called active. This list was built around the results that the source calls inconclusive (neither active nor inactive); the mix of calls is not that of the screen. Calls follow the shape of the dose curve; as a rule, active = well fitted inhibition curve with a large enough effect; inconclusive = small, poorly fitted or top-dose-only effect, or effect the other way; inactive = flat fitted curve, though single readings scatter. A potency beside an inconclusive call is a rough fit, not a confirmed value.
# Assay: Nrf2 qHTS screen for inhibitors; also: nearly all actives have a fitted effect of over 60% in size
# Settings: A549 ARE-Fluc reporter, luciferase luminescence, 18-24 h; series mostly up to 46 µM
# Method in brief: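 Nrf2 function is reported as luminescence of an ARE-controlled luciferase in A549 cells. Compounds were tested at several concentrations, and a CellTiter-Fluor read on the same wells flagged cytotoxicity.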
# Potency is read from the fitted curve at half-maximal effect.
row,SMILES,Potency
1,CC1=C(C(=O)Nc2ccccc2)C(CC(C)C)n2nc(SCc3ccccc3C)nc2N1 (stereo not drawn),inactive
2,CCc1ccc(CN(C)C(=O)CCc2nnc(COc3ccccc3)o2)cc1,"inconclusive: 2.91 µM [activator, full curve]"
3,Cc1ccc(NC(=O)Nc2ccc3c(c2)OCO3)cc1F,"inconclusive: 7.31 µM [activator, partial curve]"
4,CCn1c(N2CCN(C(=O)c3ccco3)CC2)nc2ccccc21,"inconclusive: 0.231 µM [falling, full curve, poor fit]"
5,O=C(N/N=C/c1c(O)ccc2ccccc12)c1cccnc1,"inconclusive: 29.1 µM [falling, single point]"
6,COc1cc(OC)c(N(C)S(=O)(=O)c2cccc(C(=O)OCC(=O)N(C)C3CCCCC3)c2)cc1Cl,"inconclusive: 32.6 µM [falling, single point]"
7,Cc1cc(C)cc(NC(=O)C2CCCN(C(=O)c3cnn(-c4ccccc4)c3-n3cccc3)C2)c1 (stereo not drawn),"inconclusive: 20.6 µM [falling, single point]"
8,Cc1ccc(NCc2nnc(SCC(=O)N3CCCc4ccccc43)o2)c(C)c1,"inconclusive: 13 µM [falling, partial curve, poor fit]"
9,O=C(c1ccc2nc(N3CCOCC3)sc2c1)N1CCC(Cc2ccccc2)CC1,"inconclusive: 29.1 µM [falling, single point]"
10,Cn1c(=O)n(C)c2cc([N+](=O)[O-])c(N3CCN(C(=O)c4cccc(F)c4)CC3)cc21,active: 9.2 µM
11,COc1cc(CNCc2cccc3ccccc23)cc(OC)c1,inactive
12,Cc1ccc(NC(=O)N2CCC(c3ccccc3)C2)cc1C (stereo not drawn),"inconclusive: 1.3 µM [activator, full curve]"
13,O=[N+]([O-])c1ccc(N2CCN(C(=S)Nc3ccc(F)cc3)CC2)cc1,"inconclusive: 29.1 µM [falling, single point]"
14,CC(=O)c1ccc(N2CCN(C(=O)c3ccc(S(=O)(=O)NCc4ccco4)cc3)CC2)cc1,"inconclusive: 14.6 µM [falling, partial curve]"
15,NS(=O)(=O)c1ccc(CCNC(=O)C2CCCN2C(=O)OCc2ccccc2)cc1 (stereo not drawn),inactive
16,COc1cccc(/C=N/NC(=O)CNC(=O)/C=C\c2ccccc2)c1O,"inconclusive: 6.51 µM [falling, single point]"
17,O=C(CNC(=O)c1ccccc1Cl)N/N=C/c1ccc2c(c1)OCO2,"inconclusive: 25.9 µM [activator, single point]"
18,O=c1nc(N/N=C/C=C/c2ccccc2)cn[nH]1,"inconclusive: 1.3 µM [activator, partial curve]"
19,CCCOc1ccc(-c2nc(SC)[nH]c(=O)c2C#N)cc1OC,"inconclusive: 4.61 µM [falling, single point]"
20,O=C1N=C(N2CCN(c3ccccc3)CC2)S/C1=C\c1cn[nH]c1-c1ccccc1,"inconclusive: 20.6 µM [falling, single point]"
21,O=C(COC(=O)c1cc[n+]([O-])cc1)Nc1ccc(Cl)cc1Cl,inactive
22,O=C(CCN1CCc2ccccc21)c1ccc2c(c1)OCCO2,"inconclusive: 29.1 µM [falling, single point]"

# Shown with tabs: entries from further up.
row	SMILES	Potency
2	CCc1ccc(CN(C)C(=O)CCc2nnc(COc3ccccc3)o2)cc1	inconclusive: 2.91 µM [activator, full curve]
3	Cc1ccc(NC(=O)Nc2ccc3c(c2)OCO3)cc1F	inconclusive: 7.31 µM [activator, partial curve]
4	CCn1c(N2CCN(C(=O)c3ccco3)CC2)nc2ccccc21	inconclusive: 0.231 µM [falling, full curve, poor fit]

# Next results:

row,SMILES,Potency
1,Cc1ccc(S(=O)(=O)c2c(Nc3cc(F)ccc3F)sc(C(=O)c3ccc(F)cc3)c2N)cc1,"inconclusive: 13 µM [falling, partial curve, poor fit]"
2,COc1ccc(-c2c(C)nn(-c3ccccc3)c2N)cc1,"inconclusive: 18.4 µM [activator, single point]"
3,O=c1cc(O)c(-c2ccc(Cl)cc2)c(Cl)[nH]1,inactive
4,Cc1nn2c(NCc3ccccn3)cc(C(C)C)nc2c1-c1ccccc1,"inconclusive: 20.6 µM [falling, single point]"
5,CCOC(=O)Cc1cc(=O)n2[nH]c(C)c(-c3ccccc3)c2n1,"inconclusive: 29.1 µM [falling, single point]"
6,CCOC(=O)C1CCN(C2CCN(Cc3nc(-c4ccccc4)no3)CC2)CC1,"inconclusive: 20.6 µM [falling, partial curve, poor fit]"
7,O=C1Nc2ccccc2/C1=N/N=C/c1cccc(O)c1,inactive
8,COc1cc2c(cc1O)CC[C@@H]1[C@@H]2CC[C@]2(C)[C@@H](O)CC[C@@H]12,active: 9.2 µM
9,Cc1cc(C(=O)COc2ccccc2C(N)=O)c(C)n1C,"inconclusive: 23.1 µM [falling, partial curve, poor fit]"
10,Cc1cccc(-c2oc3ccc(-c4ccc5c(c4)OCO5)cc3c2C(=O)OCc2ccc(O)cc2)c1,"inconclusive: 32.6 µM [falling, single point]"
11,Cn1c(=O)c2nc(NCc3ccccc3)sc2n(C)c1=O,"inconclusive: 10.3 µM [falling, partial curve, poor fit]"
12,CCCN(CCC)CCCNC(=O)Cn1ncc2c3ccccc3n(Cc3ccccc3)c2c1=O,inactive
13,Cc1ccc(NC(=O)Cc2csc(C)n2)c(C)c1,inactive
14,COc1ccc(CNC(=O)c2cc(SC)ccc2Cl)cc1OC,"inconclusive: 5.8 µM [falling, partial curve, poor fit]"
15,Cc1ccc(C)[n+](CC(=O)c2ccc(-c3ccccc3)cc2)c1,inactive
16,Cc1cccc(NC(=O)CSc2nncn2C)c1,inactive
17,O=C(COc1ccccc1C(=O)c1cnn(-c2ccccc2)c1)Nc1ccccc1,"inconclusive: 13 µM [activator, partial curve] and inconclusive: 16.4 µM [activator, partial curve]"
18,COC(=O)c1ccc(-c2ccc(/C=N/N3C(=O)C4C5C=CC(C6CC56)C4C3=O)o2)cc1 (stereo not drawn),"inconclusive: 6.51 µM [activator, single point]"
19,COc1cc(C(C(=O)NCC2CCCO2)N(C(=O)Cn2nnc3ccccc32)c2ccc(C(C)=O)cc2)ccc1O (stereo not drawn),"inconclusive: 3.26 µM [activator, full curve]"
20,CN(C)C(=O)c1ccc(NC(=O)COC(=O)C2(c3ccccc3)CCCC2)cc1,active: 16.4 µM
21,COc1cc(OC)cc(-c2c(-c3ccc(F)cc3)c3cc(-c4ccc5cc[nH]c5c4)ccc3n2C)c1,inactive
